Consider two substances from paper PMC1899224.

Protein sequences, listed by entry. Tags and fused reporters are not part of them.
UniProt Q04206: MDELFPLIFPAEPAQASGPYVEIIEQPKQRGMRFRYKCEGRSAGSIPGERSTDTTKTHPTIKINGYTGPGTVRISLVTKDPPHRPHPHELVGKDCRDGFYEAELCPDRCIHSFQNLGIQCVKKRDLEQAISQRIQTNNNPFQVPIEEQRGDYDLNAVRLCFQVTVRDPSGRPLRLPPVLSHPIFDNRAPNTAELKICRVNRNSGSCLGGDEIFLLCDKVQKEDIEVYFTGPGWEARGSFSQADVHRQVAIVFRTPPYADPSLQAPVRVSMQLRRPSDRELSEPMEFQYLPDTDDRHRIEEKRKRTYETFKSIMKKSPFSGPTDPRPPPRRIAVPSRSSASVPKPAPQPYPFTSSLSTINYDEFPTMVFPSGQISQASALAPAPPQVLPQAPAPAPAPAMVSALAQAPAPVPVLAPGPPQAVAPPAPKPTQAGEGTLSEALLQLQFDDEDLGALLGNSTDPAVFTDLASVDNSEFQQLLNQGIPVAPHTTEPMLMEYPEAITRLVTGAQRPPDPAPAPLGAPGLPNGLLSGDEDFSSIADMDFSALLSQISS
UniProt Q7TQN4: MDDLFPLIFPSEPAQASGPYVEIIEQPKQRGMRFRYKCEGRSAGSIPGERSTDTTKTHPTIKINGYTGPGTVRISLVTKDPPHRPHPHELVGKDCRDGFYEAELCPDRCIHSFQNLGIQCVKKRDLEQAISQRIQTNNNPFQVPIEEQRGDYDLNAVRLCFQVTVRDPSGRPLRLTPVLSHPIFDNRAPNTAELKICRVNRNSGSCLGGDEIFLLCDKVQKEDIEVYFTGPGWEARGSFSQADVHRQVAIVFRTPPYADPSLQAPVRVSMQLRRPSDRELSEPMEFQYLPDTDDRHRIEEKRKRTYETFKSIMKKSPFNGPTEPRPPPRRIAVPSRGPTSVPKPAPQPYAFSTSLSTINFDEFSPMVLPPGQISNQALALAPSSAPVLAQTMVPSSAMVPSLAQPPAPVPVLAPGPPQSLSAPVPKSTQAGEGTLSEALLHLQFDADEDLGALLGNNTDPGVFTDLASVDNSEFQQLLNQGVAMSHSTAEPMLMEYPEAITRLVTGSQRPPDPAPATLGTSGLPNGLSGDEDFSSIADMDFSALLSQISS
UniProt Q6AYH5: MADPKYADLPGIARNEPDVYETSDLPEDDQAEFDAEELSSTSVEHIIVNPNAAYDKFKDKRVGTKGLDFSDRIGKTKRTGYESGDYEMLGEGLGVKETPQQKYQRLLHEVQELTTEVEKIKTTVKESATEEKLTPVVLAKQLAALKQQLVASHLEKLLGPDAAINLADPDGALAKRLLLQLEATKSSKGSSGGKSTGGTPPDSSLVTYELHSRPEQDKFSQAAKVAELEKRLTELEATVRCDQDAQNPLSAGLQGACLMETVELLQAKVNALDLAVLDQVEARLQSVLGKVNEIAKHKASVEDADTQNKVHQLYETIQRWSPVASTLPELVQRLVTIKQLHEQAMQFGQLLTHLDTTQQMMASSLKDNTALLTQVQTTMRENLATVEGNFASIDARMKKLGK
UniProt P28023: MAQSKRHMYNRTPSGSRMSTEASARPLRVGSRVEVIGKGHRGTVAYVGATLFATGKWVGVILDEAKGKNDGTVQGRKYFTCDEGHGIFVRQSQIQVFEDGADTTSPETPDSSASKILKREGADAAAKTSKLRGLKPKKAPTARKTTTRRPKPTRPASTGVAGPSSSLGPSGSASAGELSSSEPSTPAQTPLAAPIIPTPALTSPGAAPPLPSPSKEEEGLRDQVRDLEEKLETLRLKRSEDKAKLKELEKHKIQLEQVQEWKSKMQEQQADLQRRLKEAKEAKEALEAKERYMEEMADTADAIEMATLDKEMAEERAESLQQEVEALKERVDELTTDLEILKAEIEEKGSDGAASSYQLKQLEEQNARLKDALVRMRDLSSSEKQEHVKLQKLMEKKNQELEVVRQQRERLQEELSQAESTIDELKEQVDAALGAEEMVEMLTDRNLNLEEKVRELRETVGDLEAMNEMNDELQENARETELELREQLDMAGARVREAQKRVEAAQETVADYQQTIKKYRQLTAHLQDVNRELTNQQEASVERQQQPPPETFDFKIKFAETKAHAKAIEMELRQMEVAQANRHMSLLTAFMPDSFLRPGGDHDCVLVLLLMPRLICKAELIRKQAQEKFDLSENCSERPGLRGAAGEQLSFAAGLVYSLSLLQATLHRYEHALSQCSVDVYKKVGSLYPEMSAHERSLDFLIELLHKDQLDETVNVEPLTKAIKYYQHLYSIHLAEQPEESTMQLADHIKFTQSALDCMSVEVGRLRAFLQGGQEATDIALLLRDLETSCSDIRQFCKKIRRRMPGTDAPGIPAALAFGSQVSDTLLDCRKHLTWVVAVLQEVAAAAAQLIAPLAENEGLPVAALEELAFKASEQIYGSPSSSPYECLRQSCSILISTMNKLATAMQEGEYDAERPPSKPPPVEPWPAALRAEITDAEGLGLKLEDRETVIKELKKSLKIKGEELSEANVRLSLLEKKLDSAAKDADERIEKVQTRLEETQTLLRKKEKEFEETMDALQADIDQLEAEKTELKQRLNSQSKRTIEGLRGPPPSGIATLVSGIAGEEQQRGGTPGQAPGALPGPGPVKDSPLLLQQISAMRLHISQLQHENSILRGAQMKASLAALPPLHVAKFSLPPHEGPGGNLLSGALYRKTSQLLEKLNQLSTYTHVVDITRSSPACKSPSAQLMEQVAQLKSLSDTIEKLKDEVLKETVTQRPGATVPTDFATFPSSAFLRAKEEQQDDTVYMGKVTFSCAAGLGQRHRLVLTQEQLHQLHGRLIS

Results are given in words; binding and its absence hold for the method and conditions named. In cells and extracts the contact can be indirect. Some results given as binding are weak or reduced against the parent protein; the word gives no strength.

Experiment [1] concerns the target Polyhistidine-tagged wild-type p65 (UniProt Q04206). The experiment is described as follows: pull-down; 50 µg purified His-tagged p65 immobilized on 50 µl Ni-CAM beads, incubated with 5 mg pre-cleared rat brain extract in 400 µl; eluted with imidazole buffer; SDS-PAGE and Western blot; only the target purified.
The target in experiment [2] is NF-κB p65 (rat (endogenous in rat brain)) (UniProt Q7TQN4). The experiment can be described thus: co-IP; 10 mg soluble rat brain extract (50 mM HEPES, 150 mM NaCl, 2 mM EGTA, 0.5% Triton X-100) cross-linked with DSP (0.5 mg/ml, 30 min on ice), precipitated with monoclonal anti-NF-κB p65 (sc-8008) on Protein G-Sepharose, 2 hr at 4°C; Western blot; control non-immune mouse IgG1. (In western blotting, separated proteins are transferred to a membrane and probed.)

As to “dynactin p50 (Dynamitin) (from UniProt Q6AYH5 1-402)”, the binding result in experiment [1] and in experiment [2] was “binds” in each case. p150^Glued (from UniProt P28023 1-1280): in experiment [2], the binding result is given as “binds”.
